One sequence from PMC12672779 can be followed below.

Construct, isoform or probe ends are uncertain for at least one entry.

The target of the data set is cardiac troponin I (UniProt P19429). Briefly: fluorescence turn-on of QD-SPION-aptamer sensor. The following applies: 2-40 ng/mL troponin I, LOD 13.3 ng/mL (not a Kd); C6 spacer (position and terminal group not stated); coupled to CdSe/ZnS QD-SPION conjugate by EDC/NHS; Tris-HCl buffer (concentration and pH not stated), 30 min rotation at room temperature (selectivity assay); aptamer coupling in MES pH 5.8; label: none on the DNA, QD fluorescence as read-out; single-stranded DNA.

For “CGTGCAGTACGCCAACCTTTCTCATGCGCTGCCCCTCTTA [Tro4 aptamer]”, the binding result is “binds”.
